Assay results as given in PubChem BioAssay AID504834 (National Center for Advancing Translational Sciences (NCATS), 2011).
The whole screen tested about 320,000 compounds, of which about 22,000 (6.9%) were called active. Inconclusive results, whose numbers are uncertain, are shown with a selection of clear calls. The call rests on the fitted dose curve; in most records, active means well fitted inhibition curve with a large enough effect; inconclusive means small, poorly fitted or top-dose-only effect, or another doubt; inactive means no such curve, though single readings can be large or run the other way. Potencies beside an inconclusive call are fits to weak or partial responses and may not hold up.

assay: Primary qHTS for delayed death inhibitors of the malarial parasite plastid, 96 hour incubation; settings: P. falciparum luciferase reporter growth; series mostly up to 28.7 µM; activity change, negative = inhibition: at the top concentration
Outline: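 P. falciparum expressing integrated firefly luciferase grown in erythrocytes (2% hematocrit, 0.05% parasitemia final) with compounds for 96 hours at 37 C, 5% CO2. Growth inhibition read as loss of luminescence after adding luciferase detection reagent.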
On the % scale 0 is the no-effect control and ±100 the full control effect; potency means the concentration at half of the fitted maximal effect.

Structure (SMILES)	Potency	activity change, negative = inhibition
CCCCCC[n+]1c(-c2ccccc2)csc1Nc1ccccc1	inconclusive: 11.7 µM [inhibitor, single point]	–
Cc1cc(C)nc(SCC(=O)Nc2ccc3c(c2)OCO3)n1	inconclusive: 9.28 µM [inhibitor, single point]	–
CCOC(=O)C1CCN(C(=O)C(=O)Nc2ccc3nc4n(c(=O)c3c2)CCCCC4)CC1	inconclusive: 18.5 µM [inhibitor, single point]	–
C[C@H](NC(=O)c1nc[nH]c1C(=O)NC(c1ccccc1)c1ccccc1)C(=O)OC(C)(C)C	inconclusive: 8.28 µM [inhibitor, partial curve, poor fit]	–
Cn1cc(Br)c(C(=O)Nc2ccc3c(C(F)(F)F)cc(=O)oc3c2)n1	–	inactive: -22.3%
C/C(=N\N1CCN(Cc2ccccc2)CC1)c1ccco1	–	inactive: 0%
COCCNC(=O)C(=O)NNC(=O)CCc1ccccc1	–	inactive: 43.9%
O=C(Oc1ccc(/C=N/Nc2nc(N3CCCCC3)nc(N3CCCCC3)n2)cc1)c1ccco1	–	inactive: 33.8%
O=C1[C@H]2[C@@H](c3ccc(F)cc3)N3C(=O)N(c4cccc(Br)c4)C(=O)[C@@]3(Cc3ccc(Cl)cc3)[C@H]2C(=O)N1C1CCCCC1	active: 3.29 µM	–
CN1CCN(C2=Nc3cc(Cl)ccc3Nc3ccccc32)CC1	inconclusive: 13.5 µM [inhibitor, single point]	–
N#Cc1c(N)nc(SCc2ccccc2)c(C#N)c1-c1ccco1	–	inactive: 39%
CN(CC(=O)Nc1ccc(F)cc1)C(=O)CSc1ccc2c(c1)OCCO2	inconclusive: 4.15 µM [inhibitor, single point]	–
O=C(OCc1cccc([N+](=O)[O-])c1)c1ccncc1	inconclusive: 0.104 µM [inhibitor, full curve, poor fit]	–
COc1ccc(C2N(Cc3ccccc3)CCN2Cc2ccccc2)cc1[N+](=O)[O-]	–	inactive: -15.8%
CCOc1ccc(C(CC(=O)O)NC(=O)c2sc3ccccc3c2Cl)cc1 (stereo not drawn)	inconclusive: 18.5 µM [inhibitor, single point]	–
O=C(CCNC(=O)Cn1ccc2ccccc2c1=O)NCCN1CCc2ccccc2C1	inconclusive: 4.15 µM [inhibitor, partial curve, poor fit]	–
COc1ccc(NC(=O)N2CCCC2C(=O)Nc2ccccc2F)cc1 (stereo not drawn)	active: 2.62 µM	–
CCN(CC)S(=O)(=O)c1cccc(-c2n[nH]c(=S)n2/N=C/c2ccc(OC(F)F)cc2)c1	inconclusive: 10.4 µM [inhibitor, single point]	–
O=C(CSc1nnc(NC(=O)C2CC(=O)N(c3ccccc3)C2)s1)NCc1ccco1 (stereo not drawn)	inconclusive: 1.85 µM [inhibitor, partial curve, poor fit]	–
Cc1noc(C)c1COc1ccc(C(=O)N2CCN(c3ccccc3O)CC2)cc1	inconclusive: 18.5 µM [inhibitor, single point]	–
COc1ccc(C(CNC(=O)c2cc(SC)ccc2Cl)N(C)C)cc1 (stereo not drawn)	inconclusive: 9.28 µM [inhibitor, single point]	–
CC(C)c1ccccc1OCCCN1CCCC1	inconclusive: 18.5 µM [inhibitor, single point]	–
O=C(Nc1nnc(-c2ccc3c(c2)CCCC3)o1)c1ccccc1Cl	inconclusive: 18.5 µM [inhibitor, single point]	–

Structure (SMILES)	Potency	activity change, negative = inhibition
COC(=O)/C(=C\Nc1ccccc1N)c1ncc(C(F)(F)F)cc1Cl	–	inactive: -18.6%
O=C(Nc1ccon1)c1cccc(S(=O)(=O)N2CCCCC2)c1	inconclusive: 18.5 µM [inhibitor, single point]	–
CC(=O)N1c2ccccc2C(=O)C1N1CCCCC1 (stereo not drawn)	inconclusive: 7.38 µM [inhibitor, partial curve, poor fit]	–
C=CCn1cnc2scc(-c3ccc(OC)cc3)c2c1=O	inconclusive: 2.33 µM [inhibitor, full curve]	–
Fc1ccc(-c2ccc(NCCN3CCOCC3)nn2)cc1	–	inactive: 15.4%
COc1ccc2c(c1)CCC/C2=N/OC(=O)c1ccccc1OC	inconclusive: 7.38 µM [inhibitor, partial curve, poor fit]	–
COc1ccc(NC(=O)CSc2nc(N)c(C#N)cc2C#N)cc1	inconclusive: 11.7 µM [inhibitor, partial curve, poor fit]	–
COc1ccc(-c2nc(N3CCCCCC3)sc2C(=O)c2ccccc2)cc1	inconclusive: 0.233 µM [inhibitor, partial curve, poor fit]	–
CC1CN(S(=O)(=O)c2ccc(C(=O)Nc3sc4c(c3C(N)=O)CCN(C)C4)cc2)CC(C)O1 (stereo not drawn)	inconclusive: 0.37 µM [inhibitor, partial curve, poor fit]	–
CCCc1nc(-c2ccccc2O)n(-c2ccccc2)n1	inconclusive: 3.29 µM [inhibitor, single point]	–
Cc1ccnc(NC(=O)c2cccc(NC(=O)CC3SC(N4CCCCC4)=NC3=O)c2)c1 (stereo not drawn)	active: 8.28 µM	–
Cn1c(N)c(C(=O)COC(=O)c2cc(-c3ccco3)nc3ccccc23)c(=O)n(Cc2ccccc2)c1=O	active: 9.28 µM	–
COC(c1ccc(Cl)cc1)(c1ccc(Cl)cc1)C(Oc1nccc(C)n1)C(=O)O (stereo not drawn)	inconclusive: 5.86 µM [inhibitor, partial curve, poor fit]	–
Cc1cc(C)n(CC(=O)NCc2ccccc2)c(=O)c1C#N	inconclusive: 11.7 µM [inhibitor, single point]	–
O=C(O)CCCCNCc1ccccc1	–	inactive: 22.4%
NNc1nc(-c2ccccc2)c2cc(Br)ccc2n1	inconclusive: 8.28 µM [inhibitor, partial curve]	–
CCOc1ccc(/C=C/C(=O)OCC(=O)Nc2cccc(S(=O)(=O)N3CCCC3)c2)cc1	inconclusive: 18.5 µM [inhibitor, single point]	–
CC(C)(C)c1ccc(OCCCC(=O)N2CCOCC2)cc1	–	inactive: -8.09%
COc1ccccc1CC(=O)N1CCN(c2ccccc2F)CC1	inconclusive: 14.7 µM [inhibitor, single point]	–
CCCCNc1ccc2c3c(cccc13)C(=O)N(CCCC)C2=O	inconclusive: 18.5 µM [inhibitor, single point]	–
Cc1c(Br)c([N+](=O)[O-])nn1CC(=O)N1CCN(C23CC4CC(CC(C4)C2)C3)CC1	–	inactive: 37%
O=C(COC(=O)CNC(=O)c1cccc(OC(F)F)c1)NNC(=O)c1ccccc1	inconclusive: 18.5 µM [inhibitor, single point]	–
COc1ccccc1/C=C/C(=O)OC(C)CN1CCCCC1 (stereo not drawn)	inconclusive: 14.7 µM [inhibitor, single point]	–

Structure (SMILES)	Potency	activity change, negative = inhibition
CCC(C)NC(=O)CCC(=O)Nc1ccc2nc(N3CC(C)CC(C)C3)cc(C)c2c1 (stereo not drawn)	active: 5.86 µM	–
C#CCOC(=O)/C(=C/c1ccc(F)cc1)NC(C)=O	inconclusive: 18.5 µM [inhibitor, single point]	–
O=C(NN=C(Cc1ccccc1)Cc1ccccc1)c1ccncc1	inconclusive: 0.0029 µM [inhibitor, full curve, poor fit]	–
COc1ccc(N(C(=O)c2ccc(Br)o2)C2C=CS(=O)(=O)C2)c(OC)c1 (stereo not drawn)	inconclusive: 18.5 µM [inhibitor, single point]	–
COc1cc(OC)cc(C(=O)N[C@H](C(=O)Nc2nc(-c3cc(OC)ccc3OC)cs2)C(C)C)c1	inconclusive: 18.5 µM [inhibitor, single point]	–
O=C(O)c1ccc(S(=O)(=O)NC2CCCCCC2)cc1	active: 11.7 µM	–
CCc1c(C)nc(N)n2c(SCC(=O)Nc3ccccc3OC)nnc12	active: 10.4 µM	–
COc1ccc(Cn2c(=O)[nH]c3cc(C(=O)N4CCN(c5ccccc5)CC4)ccc3c2=O)cc1	inconclusive: 16.5 µM [inhibitor, single point]	–
O=C(N/N=C/C=C/c1ccccc1)c1ccncc1	–	inactive: 18.3%
COc1ccc(NC(=O)CSCC(=O)N(C)Cc2ccc3c(c2)OCCO3)cc1	inconclusive: 8.28 µM [inhibitor, partial curve]	–
CCOc1ccc2[nH]c(C)c(CN3CCCCCC3)c(=O)c2c1	inconclusive: 0.828 µM [inhibitor, full curve]	–
COCCCn1c(=O)/c(=C\c2ccc(OC(F)F)c(OC)c2)s/c1=C(/C#N)C(=O)NCCOC	–	inactive: 15.3%
CCOC(=O)c1c(/N=C/c2cccc([N+](=O)[O-])c2O)sc2c1CCC2	inconclusive: 11.7 µM [inhibitor, single point]	–
CCc1ccc(Nc2nnc(SCC(=O)N(C)C3CCS(=O)(=O)C3)s2)cc1 (stereo not drawn)	inconclusive: 10.4 µM [inhibitor, partial curve, poor fit]	–
CC(C)N(Cc1nnc(-c2ccc(Cl)cc2)o1)C(=O)c1cc2ccccc2o1	inconclusive: 18.5 µM [inhibitor, single point]	–
CSCC[C@H](NC(=O)CCCn1nnc2ccccc2c1=O)C(=O)O	inconclusive: 0.0026 µM [inhibitor, full curve, poor fit]	–
CCCN1C=CC(=CC=C(C#N)C#N)C=C1	–	inactive: -25.5%
COc1ccc(CN(C(=O)c2cc3ccccc3oc2=O)C2CCCC2)cc1	–	inactive: 3.66%
CCOC(=O)CSc1nc2sc3c(c2c(=O)n1-c1ccc(OC)cc1)CCN(C)C3	active: 1.47 µM	–
CN(C)CCn1c2c(c(SCC(=O)Nc3nccs3)nc1=O)CCCC2	inconclusive: 20.8 µM [inhibitor, partial curve, poor fit]	–
CCc1ccc(/C=N/NC(=O)c2cc(-c3ccncc3)nc3ccccc23)s1	inconclusive: 18.5 µM [inhibitor, single point]	–
Cn1nnnc1SCC(=O)Nc1cccc(S(=O)(=O)N2CCCC2)c1	inconclusive: 10.4 µM [inhibitor, single point]	–
